Assay results from article PMC3445812.
Results are given in words; binding and its absence hold for the method and conditions named.

Experiments:
Assay in all cases: SEC; S200 16/60 gel filtration column in 20 mM Hepes pH 7.4, 500 mM NaCl, 0.5 mM TCEP, after Ni2+ IMAC; retention volumes compared with molecular weight standards; both purified
[1] = target: Mitogen-activated protein kinase 13 (residues 15-359) (human) (UniProt O15264)
[2] = target: T1, Mitogen-activated protein kinase 3 (residues 1-379) (human), P27361; details: remark: other sources report otherwise
T1 chain: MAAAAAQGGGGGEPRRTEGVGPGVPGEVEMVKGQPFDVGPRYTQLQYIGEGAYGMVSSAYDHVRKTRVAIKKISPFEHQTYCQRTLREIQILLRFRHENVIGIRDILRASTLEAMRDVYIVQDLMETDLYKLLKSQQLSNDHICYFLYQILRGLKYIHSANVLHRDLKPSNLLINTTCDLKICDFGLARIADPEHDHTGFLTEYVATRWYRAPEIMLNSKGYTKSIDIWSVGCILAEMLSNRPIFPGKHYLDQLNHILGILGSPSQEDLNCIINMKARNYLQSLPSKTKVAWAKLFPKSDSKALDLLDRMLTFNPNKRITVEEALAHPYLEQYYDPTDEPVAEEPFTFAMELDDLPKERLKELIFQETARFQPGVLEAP

[3] = target: Mitogen-activated protein kinase 9 (residues 1-380) (human) (UniProt P45984)

B1: Mitogen-activated protein kinase 13 (residues 15-359) (domain or fragment, UniProt O15264 15-359)
chain: NKTAWELPKTYVSPTHVGSGAYGSVCSAIDKRSGEKVAIKKLSRPFQSEIFAKRAYRELLLLKHMQHENVIGLLDVFTPASSLRNFYDFYLVMPFMQTDLQKIMGMEFSEEKIQYLVYQMLKGLKYIHSAGVVHRDLKPGNLAVNEDCELKILDFGLARHADAEMTGYVVTRWYRAPEVILSWMHYNQTVDIWSVGCIMAEMLTGKTLFKGKDYLDQLTQILKVTGVPGTEFVQKLNDKAAKSYIQSLPQTPRKDFTQLFPRASPQAADLLEKMLELDVDKRLTAAQALTHPFFEPFRDPEEETEAQQPFDDSLEHEKLTVDEWKQHIYKEIVNFSPIARKDSRR
For B1, the binding [1] was “no binding”.

B2: Mitogen-activated protein kinase 3 (residues 1-379), P27361 1-379 (enzyme)
chain: MAAAAAQGGGGGEPRRTEGVGPGVPGEVEMVKGQPFDVGPRYTQLQYIGEGAYGMVSSAYDHVRKTRVAIKKISPFEHQTYCQRTLREIQILLRFRHENVIGIRDILRASTLEAMRDVYIVQDLMETDLYKLLKSQQLSNDHICYFLYQILRGLKYIHSANVLHRDLKPSNLLINTTCDLKICDFGLARIADPEHDHTGFLTEYVATRWYRAPEIMLNSKGYTKSIDIWSVGCILAEMLSNRPIFPGKHYLDQLNHILGILGSPSQEDLNCIINMKARNYLQSLPSKTKVAWAKLFPKSDSKALDLLDRMLTFNPNKRITVEEALAHPYLEQYYDPTDEPVAEEPFTFAMELDDLPKERLKELIFQETARFQPGVLEAP
modifications: here or on the partner: 0-1 phosphorylations (modal value 0), sites not mapped; 0-1 phosphorylations (modal value 0), sites not mapped
With B2 the binding [2] was “no binding”.

B3: Mitogen-activated protein kinase 9 (residues 1-380) (domain or fragment, UniProt P45984 1-380)
chain: MSDSKCDSQFYSVQVADSTFTVLKRYQQLKPIGSGAQGIVCAAFDTVLGINVAVKKLSRPFQNQTHAKRAYRELVLLKCVNHKNIISLLNVFTPQKTLEEFQDVYLVMELMDANLCQVIHMELDHERMSYLLYQMLCGIKHLHSAGIIHRDLKPSNIVVKSDCTLKILDFGLARTACTNFMMTPYVVTRYYRAPEVILGMGYKENVDIWSVGCIMGELVKGCVIFQGTDHIDQWNKVIEQLGTPSAEFMKKLQPTVRNYVENRPKYPGIKFEELFPDWIFPSESERDKIKTSQARDLLSKMLVIDPDKRISVDEALRHPYITVWYDPAEAEAPPPQIYDAQLEEREHAIEEWKELIYKEVMDWEERSKNGVVKDQPSDAA
For B3, the binding [3] was “no binding”.
